Taken from: PubChem BioAssay AID743121 (NCATS, 2013)

Aim: 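Partners whose loss is lethal together with topoisomerase I blockade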 (primary screen)
Cells: MDA-MB-231 cells, a human breast cancer line
Knock-down reagent: single siRNA against human genes, 20 nM siRNA (0.8 pmol per well)
Time to read-out: 120 h (drug added 48 h after transfection, read 72 h later)
Treatment: camptothecin 20 nM (about EC30) for 72 h; vehicle 0.1% DMSO in parallel plates
Detection: 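CellTiter-Glo ATP signal, scaled to control siRNA as percent viability; sensitisation given as log2 of untreated divided by camptothecin-treated viability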
Direction: log2 vehicle/camptothecin viability: higher = stronger sensitisation to camptothecin
Hit rule: 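Each gene scored by redundant siRNA activity (RSA) over its individual siRNA ratios; a gene is called active at p < 0.001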
In all, the deposit lists about 26,000 reagents; below is an unselected part. 167 of them (0.63%) count as active. 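Calls are per gene from RSA p-values that are not deposited; an individual active-marked siRNA can sensitise only weakly.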 Reagents against one gene are numbered here. Not all columns of the deposit are shown.

| target gene | siRNA no. | log2 vehicle/camptothecin viability | call |
| --- | --- | --- | --- |
| RHBDD3 (rhomboid domain containing 3) | 1 | -0.191 | inactive |
| RHBDD3 (rhomboid domain containing 3) | 2 | -0.0889 | inactive |
| RHBDD3 (rhomboid domain containing 3) | 3 | -0.0656 | inactive |
| RHBDD3 (rhomboid domain containing 3) | 4 | 0.0372 | inactive |
| SSTR3 (somatostatin receptor 3) | 1 | 0.255 | inactive |
| SSTR3 (somatostatin receptor 3) | 2 | -0.738 | inactive |
| SSTR3 (somatostatin receptor 3) | 3 | -0.387 | inactive |
| SSTR3 (somatostatin receptor 3) | 4 | -0.265 | inactive |
| ASNSD1 (asparagine synthetase domain containing 1) | 1 | 0.0261 | inactive |
| ASNSD1 (asparagine synthetase domain containing 1) | 2 | -0.177 | inactive |
| ASNSD1 (asparagine synthetase domain containing 1) | 3 | 0.985 | inactive |
| ASNSD1 (asparagine synthetase domain containing 1) | 4 | 0.267 | inactive |
| SLC6A3 | 1 | -0.214 | inactive |
| SLC6A3 | 2 | -0.248 | inactive |
| SLC6A3 | 3 | -0.207 | inactive |
| SLC6A3 | 4 | 0.133 | inactive |
| ST14 (ST14 transmembrane serine protease matriptase) | 1 | 0.0839 | inactive |
| ST14 (ST14 transmembrane serine protease matriptase) | 2 | 1.2 | inactive |
| ST14 (ST14 transmembrane serine protease matriptase) | 3 | -0.52 | inactive |
| MYL3 (myosin light chain 3) | 1 | 0.289 | inactive |
| MYL3 (myosin light chain 3) | 2 | -0.361 | inactive |
| MYL3 (myosin light chain 3) | 3 | -0.32 | inactive |
| MYL3 (myosin light chain 3) | 4 | -0.0809 | inactive |
| CPLX2 (complexin 2) | 1 | 0.178 | inactive |
| CPLX2 (complexin 2) | 2 | -0.406 | inactive |
| CPLX2 (complexin 2) | 3 | -0.413 | inactive |
| CPLX2 (complexin 2) | 4 | 0.046 | inactive |
| PIK3CG | 1 | -0.635 | inactive |
| PIK3CG | 2 | -0.101 | inactive |
| PIK3CG | 3 | -0.397 | inactive |
| PIK3CG | 4 | -0.147 | inactive |
| MAPK8IP2 (mitogen-activated protein kinase 8 interacting protein 2) | 1 | 0.0909 | inactive |
| MAPK8IP2 (mitogen-activated protein kinase 8 interacting protein 2) | 2 | -0.65 | inactive |
| MAPK8IP2 (mitogen-activated protein kinase 8 interacting protein 2) | 3 | 0.361 | inactive |
| MAPK8IP2 (mitogen-activated protein kinase 8 interacting protein 2) | 4 | -0.43 | inactive |
| ANGPTL4 (angiopoietin like 4) | 1 | -0.45 | inactive |
| ANGPTL4 (angiopoietin like 4) | 2 | 0.0872 | inactive |
| ANGPTL4 (angiopoietin like 4) | 3 | -0.363 | inactive |
| ANGPTL4 (angiopoietin like 4) | 4 | -0.141 | inactive |
| USP20 (ubiquitin specific peptidase 20) | 1 | -0.431 | inactive |
| USP20 (ubiquitin specific peptidase 20) | 2 | 0.155 | inactive |
| USP20 (ubiquitin specific peptidase 20) | 3 | 0.18 | inactive |
| USP20 (ubiquitin specific peptidase 20) | 4 | -0.187 | inactive |
| NEFL (neurofilament light chain) | 1 | -0.192 | inactive |
| NEFL (neurofilament light chain) | 2 | -0.048 | inactive |
| NEFL (neurofilament light chain) | 3 | -0.251 | inactive |
| NEFL (neurofilament light chain) | 4 | -0.376 | inactive |

A stretch taken from the entries so far, for reference:
| target gene | siRNA no. | log2 vehicle/camptothecin viability | call |
| --- | --- | --- | --- |
| ASNSD1 (asparagine synthetase domain containing 1) | 1 | 0.0261 | inactive |
| ASNSD1 (asparagine synthetase domain containing 1) | 2 | -0.177 | inactive |
| ASNSD1 (asparagine synthetase domain containing 1) | 3 | 0.985 | inactive |
| ASNSD1 (asparagine synthetase domain containing 1) | 4 | 0.267 | inactive |
| SLC6A3 | 1 | -0.214 | inactive |
